# From the supplement of paper PMC10338343
# ± gives the standard deviation. The entries are a selection whose mix differs from that of the whole data set. The uncertainty is large for many entries. This is one part of the list.
# Assays:
# [1] = system: MILI (PIWIL2) piRISC loaded with L1MC piRNA (26 nt); test: pre-steady-state target cleavage rate (min^-1); higher = faster piRNA-guided slicing of the target; details: guide: L1MC piRNA 5'p-UAACUAAAUACUAUGCAAGCUGUAGG
# Outline: (§1)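 In Cleave-'n-Seq, a transcribed, DNA-blocked target RNA library (0.1 nM) was combined with 1 nM active affinity-purified piRISC bearing one synthetic guide, with or without 500 nM GTSF1 partner protein. Reactions ran in HEPES–potassium acetate buffer at 33 °C for 0–8 or 0–960 min. Uncleaved targets were sequenced and normalised to depth and to weakly complementary targets, three trials were pooled, and k3 was capped at 0.0001 min^-1. The pre-steady-state cleavage rate was obtained by fitting a burst-and-steady-state model.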
# [2] = system: EfPiwi piRISC loaded with L1MC piRNA (26 nt); test: pre-steady-state target cleavage rate (min^-1); guide: L1MC piRNA 5'p-UAACUAAAUACUAUGCAAGCUGUAGG; MIWI and MILI are mouse PIWI proteins and EfPiwi is from a freshwater sponge; tags in brackets are library labels; higher = faster piRNA-guided slicing of the target
# Outline: as §1
# [3] = auxiliary factor: 500 nM mouse GTSF1
# [4] = auxiliary factor: 500 nM Ephydatia muelleri Gtsf1
# [5] = auxiliary factor: none (no GTSF1)
# [6] = auxiliary factor: none (no Gtsf1)
Sequence,"pre-steady-state target cleavage rate [1, 3]","pre-steady-state target cleavage rate [2, 4]","pre-steady-state target cleavage rate [1, 5]","pre-steady-state target cleavage rate [2, 6]"
UCCUGCUACAGCUUGGCAUAGUAUUUAGUUA,0.307 ± 0.051,0.00928 ± 0.0031,,
UCCUGGAUGUCGAUGCAAAGAAUUUAGUUA,,0.000236 ± 0.01,0.000292 ± 0.013,
UCCUGCUACAGCUUGCAUAGUAUUUAGUUUA,0.308 ± 0.018,0.0608 ± 0.016,,
UCCUCCUACAGCUUCGCAUAGUAUUUAGUUA,0.282 ± 0.015,0.121 ± 0.032,,
UCCUCCUUCAGCUUGCAUAGUAUUUAGAAA,,0.00603 ± 0.0031,0.00112 ± 0.0048,
UCCUGGAGCAGCUUGCAUAGUAUUUAGUUA,0.333 ± 0.021,0.101 ± 0.024,,
UCCUGGUACAGCUUGCAUAGUUUUUACUUA,,0.000499 ± 0.019,0.00154 ± 0.0055,
UCCUGGAACAGCUUGCUUAGUAUUUAGAUA,,0.00448 ± 0.0027,0.00191 ± 0.0029,
UCCUGCUACAGCUUGCAUAGUAUAUAGAUA,,0.00352 ± 0.0017,0.000783 ± 0.0076,
UCCUGGAUGUCGAUCCAUACUAUUUAGUUA,,0.000414 ± 0.016,0.000188 ± 0.032,
UCCUCGUACAGCUUGCAUAGUAUUUACAAA,,0.00271 ± 0.0024,0.00128 ± 0.0045,
UCCUCCUACAGCUUGCAUAGUAUUUAGUCUA,,,0.00288 ± 0.0029,0.000558 ± 0.011
UCCUGCUACAGCAUGCAUACUAUUUAGUUA,,,0.00325 ± 0.0036,0.00109 ± 0.0074
UCCUGGAUGUCGAAGGUUAGUAUUUAGUUA,0.00012 ± 0.036,0.000258 ± 0.014,,
UCCUGGAUCAGGUUGCAUAGUAUUUAGAUA,,0.00381 ± 0.0026,0.00239 ± 0.0034,
UCCUGGUACAGCUUGCAUAGAAUUUAGAUA,,0.00171 ± 0.0037,0.00143 ± 0.0053,
UCCUGGAUCAGGUUGCAUAGUAUUUAGAAA,,0.00341 ± 0.0019,0.00249 ± 0.0025,
UCCUGGUACACCUUGCAUAGUAUUUACUUA,,0.000793 ± 0.0064,0.00121 ± 0.0088,
UCCUGCUACAGCUUGCAUAGUAUAUUCAAA,,0.00134 ± 0.0024,0.00133 ± 0.0055,
UCCUGGAUCAGCUCGCAUAGUAUUUAGUUA,0.284 ± 0.019,0.0549 ± 0.013,,

# Reformatted as tab-separated lines: entries from further up.
Sequence	pre-steady-state target cleavage rate [1, 3]	pre-steady-state target cleavage rate [2, 4]	pre-steady-state target cleavage rate [1, 5]	pre-steady-state target cleavage rate [2, 6]
UCCUGGAACAGCUUGCUUAGUAUUUAGAUA		0.00448 ± 0.0027	0.00191 ± 0.0029	
UCCUGCUACAGCUUGCAUAGUAUAUAGAUA		0.00352 ± 0.0017	0.000783 ± 0.0076	
UCCUCCUACAGCUUGCAUAGUAUUUAGUCUA			0.00288 ± 0.0029	0.000558 ± 0.011
UCCUGGAUCAGGUUGCAUAGUAUUUAGAAA		0.00341 ± 0.0019	0.00249 ± 0.0025	
